Results published in US6906239B2, “Plant preparations” (priority 2002, dated 2005).
A unit is not stated for every read-out.

How the values were obtained:
sugar cane plants = assay: Lignin staining of bagasse from sugar cane treated with modified precursors (Example 4); type: in vivo, Saccharum officinarum L.; conditions: 5 g drench to roots at 4 and 2 weeks before harvest, no fungus, scale 9 most intense to 0 no staining
Tulip trees = assay: Fungicidal candidates injected into Tulip tree seedlings: plant development, phytotoxicity, lignin staining (Example 12 i); type: in vivo, Liriodendron tulipifera; conditions: Tulip tree stem; 100 ppm application rate, injection, harvested after 4 weeks; no fungus; scale 9 to 0

SMILES	Lignin stain intensity (sugar cane plants)	Lignin Stain (Tulip trees)	other results
O=Cc1ccc(O)cc1Cl [2-Chloro-4-hydroxybenzaldehyde]	8	–	–
O=C(O)C(F)=Cc1ccccc1 [alpha-Fluorocinnamic Acid]	8	–	–
O=C(O)C=Cc1ccccc1 [Cinnamic Acid, reference compound]	8	–	Lignin stain intensity (sugar cane plants; listed as cinnamic acid): neither the addition of the normal, unmodified lignin precursor, cinnamic acid, nor the addition of halogenated, 2,6-difluorocinnamic acid resulted in increased staining
c1ccc2[nH]c(-c3cscn3)nc2c1 [Thiabendazole, 2-(4-thiazolyl)benzimidazole]	–	9	–
O=Cc1cc(Br)c(O)c(Br)c1 [3,5-Dibromo-4-hydroxybenzaldehyde]	8	–	–
O=C(O)C=Cc1c(F)cccc1F [2,6-Difluorocinnamic Acid]	8	–	Lignin stain intensity (sugar cane plants; listed as 2,6-difluorocinnamic acid): neither the addition of the normal, unmodified lignin precursor, cinnamic acid, nor the addition of halogenated, 2,6-difluorocinnamic acid resulted in increased staining
CCCC1COC(Cn2cncn2)(c2ccc(Cl)cc2Cl)O1 (centres unmarked) [Propiconazole, 1-[[2-(2,4-dichlorophenyl)-4-propyl-1,3-dioxolan-2-yl]methyl]-1H-1,2,4-triazole]	–	9	–
COC(=O)Nc1nc2ccccc2[nH]1 [Carbendazim, methyl-2-benzimidazole carbamate]	–	9	–
O=C(O)C=Cc1cccc(Cl)c1 [3-Cholorcinnamic Acid, 3-Cholorcinnamic acid]	8	–	–
